Results published in the supplement of paper PMC5355238.
Counter-ions that a name gives are not always drawn. The list shows a part of the results. Most values lie at the level of the controls, where differences are scatter.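 Using flow cytometry, the assay measures the median γH2AX antibody signal in S-phase Reh cells (a human leukemia line). Each score is the number of standard deviations from the median difference of paired plate sets. Candidate hits scored above 2.5; compounds scoring below -2 lowered MK1775-induced damage.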

The molecules below were run on Reh (assay: Z' of S-phase gammaH2AX difference (drug + MK1775 minus drug alone) (Z-score); higher = stronger synergistic S-phase DNA damage with MK1775). Conditions: MK1775 concentration 400 nM; first compound 10 µM; 4 h.

Structure (SMILES) | Z' of S-phase gammaH2AX difference (Z-score)
CCCCC1C(=O)N(c2ccccc2)N(c2ccccc2)C1=O [Phenylbutazone] + C=CCn1c(=O)c2cnc(Nc3ccc(N4CCN(C)CC4)cc3)nc2n1-c1cccc(C(C)(C)O)n1 [MK1775] | inactive: 0.199
O=C(O)Cc1ccc(O)c(O)c1 [3,4-Dihydroxyphenylacetic acid] + C=CCn1c(=O)c2cnc(Nc3ccc(N4CCN(C)CC4)cc3)nc2n1-c1cccc(C(C)(C)O)n1 [MK1775] | inactive: 1.44
Cc1ccc(C(=O)N(CCCN)[C@@H](c2nc3cc(Cl)ccc3c(=O)n2Cc2ccccc2)C(C)C)cc1 + C=CCn1c(=O)c2cnc(Nc3ccc(N4CCN(C)CC4)cc3)nc2n1-c1cccc(C(C)(C)O)n1 [MK1775] | inactive: -0.656
N=C(N)N1CCc2ccccc2C1 [Debrisoquin sulfate] + C=CCn1c(=O)c2cnc(Nc3ccc(N4CCN(C)CC4)cc3)nc2n1-c1cccc(C(C)(C)O)n1 [MK1775] | inactive: 0.0753
C[C@@H](Oc1cc(-c2cnn(C3CCNCC3)c2)cnc1N)c1c(Cl)ccc(F)c1Cl + C=CCn1c(=O)c2cnc(Nc3ccc(N4CCN(C)CC4)cc3)nc2n1-c1cccc(C(C)(C)O)n1 [MK1775] | inactive: -0.74
CC(C)C1C2CCC(C2)C1N (stereo not given) + C=CCn1c(=O)c2cnc(Nc3ccc(N4CCN(C)CC4)cc3)nc2n1-c1cccc(C(C)(C)O)n1 [MK1775] | inactive: 0.02
Nc1c(S(=O)(=O)O)cc(Nc2ccc(Nc3nc(Cl)nc(Nc4cccc(S(=O)(=O)O)c4)n3)c(S(=O)(=O)O)c2)c2c1C(=O)c1ccccc1C2=O [Reactive Blue 2] + C=CCn1c(=O)c2cnc(Nc3ccc(N4CCN(C)CC4)cc3)nc2n1-c1cccc(C(C)(C)O)n1 [MK1775] | inactive: 0.028
CNCC[C@@H](Oc1ccccc1C)c1ccccc1 [Tomoxetine] + C=CCn1c(=O)c2cnc(Nc3ccc(N4CCN(C)CC4)cc3)nc2n1-c1cccc(C(C)(C)O)n1 [MK1775] | inactive: -0.438
c1ccc(CN2CCC3(CCCc4ccccc43)CC2)cc1 [L-687,384 hydrochloride] + C=CCn1c(=O)c2cnc(Nc3ccc(N4CCN(C)CC4)cc3)nc2n1-c1cccc(C(C)(C)O)n1 [MK1775] | inactive: -0.121
COc1nc(C)cnc1NS(=O)(=O)c1cccnc1-c1ccc(-c2nnco2)cc1 [Zibotentan (ZD4054)] + C=CCn1c(=O)c2cnc(Nc3ccc(N4CCN(C)CC4)cc3)nc2n1-c1cccc(C(C)(C)O)n1 [MK1775] | inactive: 0.347
C[N+](C)(C)CCC(=O)c1cccc2ccccc12 [2-(alpha-Naphthoyl)ethyltrimethylammonium iodide] + C=CCn1c(=O)c2cnc(Nc3ccc(N4CCN(C)CC4)cc3)nc2n1-c1cccc(C(C)(C)O)n1 [MK1775] | inactive: 0.0243
CN1[C@@H]2CC[C@H]1C[C@@H](OC(c1ccccc1)c1ccccc1)C2 [Benztropine mesylate] + C=CCn1c(=O)c2cnc(Nc3ccc(N4CCN(C)CC4)cc3)nc2n1-c1cccc(C(C)(C)O)n1 [MK1775] | inactive: 0.438
CC1(C)C(=O)N(CCN2CCC(C(=O)c3ccc(F)cc3)CC2)c2ccccc21 [LY-310,762 hydrochloride] + C=CCn1c(=O)c2cnc(Nc3ccc(N4CCN(C)CC4)cc3)nc2n1-c1cccc(C(C)(C)O)n1 [MK1775] | inactive: 0.726
NC(=O)Nc1sc(-c2ccc(F)cc2)cc1C(N)=O + C=CCn1c(=O)c2cnc(Nc3ccc(N4CCN(C)CC4)cc3)nc2n1-c1cccc(C(C)(C)O)n1 [MK1775] | inactive: -0.576
Cc1c(CC(C)(C)C(=O)O)n(Cc2ccc(Cl)cc2)c2ccc(F)cc12 + C=CCn1c(=O)c2cnc(Nc3ccc(N4CCN(C)CC4)cc3)nc2n1-c1cccc(C(C)(C)O)n1 [MK1775] | inactive: -0.873
CC(=O)OC(C)C[N+](C)(C)C (stereo not drawn) [Acetyl-beta-methylcholine chloride] + C=CCn1c(=O)c2cnc(Nc3ccc(N4CCN(C)CC4)cc3)nc2n1-c1cccc(C(C)(C)O)n1 [MK1775] | inactive: -0.0134
C=CCc1ccccc1OCC(O)CNC(C)C (stereo not given) [Alprenolol hydrochloride] + C=CCn1c(=O)c2cnc(Nc3ccc(N4CCN(C)CC4)cc3)nc2n1-c1cccc(C(C)(C)O)n1 [MK1775] | inactive: 0.19
Cc1nc(N=Nc2ccc(S(=O)(=O)O)cc2S(=O)(=O)O)c(COP(=O)(O)O)c(C=O)c1O + C=CCn1c(=O)c2cnc(Nc3ccc(N4CCN(C)CC4)cc3)nc2n1-c1cccc(C(C)(C)O)n1 [MK1775] | inactive: -0.277

Structure (SMILES) | Z' of S-phase gammaH2AX difference (Z-score)
CCCCC[C@H](CC(=O)NO)C(=O)N[C@H](C(=O)N1CCC[C@H]1CO)C(C)C [Actinonin] + C=CCn1c(=O)c2cnc(Nc3ccc(N4CCN(C)CC4)cc3)nc2n1-c1cccc(C(C)(C)O)n1 [MK1775] | inactive: -0.1
CN(C)C(=O)N=NC(=O)N(C)C [N,N,N',N'-Tetramethylazodicarboxamide] + C=CCn1c(=O)c2cnc(Nc3ccc(N4CCN(C)CC4)cc3)nc2n1-c1cccc(C(C)(C)O)n1 [MK1775] | inactive: -0.911
CN(C)CCC(c1ccccc1)c1ccccn1 (stereo not given) [Pheniramine maleate] + C=CCn1c(=O)c2cnc(Nc3ccc(N4CCN(C)CC4)cc3)nc2n1-c1cccc(C(C)(C)O)n1 [MK1775] | inactive: 0.403
CCOc1ccc(Cc2cc([C@@H]3O[C@H](CO)[C@@H](O)[C@H](O)[C@H]3O)ccc2Cl)cc1 [Dapagliflozin] + C=CCn1c(=O)c2cnc(Nc3ccc(N4CCN(C)CC4)cc3)nc2n1-c1cccc(C(C)(C)O)n1 [MK1775] | inactive: 0.422
COC1=C(OC)C(=O)c2ccccc2C1=O [2,3-Dimethoxy-1,4-naphthoquinone] + C=CCn1c(=O)c2cnc(Nc3ccc(N4CCN(C)CC4)cc3)nc2n1-c1cccc(C(C)(C)O)n1 [MK1775] | inactive: -0.503
CCn1c(-c2nonc2N)nc2cnc(Oc3cccc(NC(=O)c4ccc(OCCN5CCOCC5)cc4)c3)cc21 + C=CCn1c(=O)c2cnc(Nc3ccc(N4CCN(C)CC4)cc3)nc2n1-c1cccc(C(C)(C)O)n1 [MK1775] | inactive: -0.58
Cn1cnc2c(NC3CCCC3)ncnc21 [N6-Cyclopentyl-9-methyladenine] + C=CCn1c(=O)c2cnc(Nc3ccc(N4CCN(C)CC4)cc3)nc2n1-c1cccc(C(C)(C)O)n1 [MK1775] | inactive: 0.16
CC[C@]1(O)C[C@@H]2CN(CCc3c([nH]c4ccccc34)[C@@](C(=O)OC)(c3cc4c(cc3OC)N(C)[C@H]3[C@@](O)(C(=O)OC)[C@H](OC(C)=O)[C@]5(CC)C=CCN6CC[C@]43[C@@H]65)C2)C1 [Vinblastine sulfate salt] + C=CCn1c(=O)c2cnc(Nc3ccc(N4CCN(C)CC4)cc3)nc2n1-c1cccc(C(C)(C)O)n1 [MK1775] | inactive: -0.0205
CC[C@]1(O)C[C@@H]2CN(CCc3c([nH]c4ccccc34)[C@@](C(=O)OC)(c3cc4c(cc3OC)N(C)[C@H]3[C@@](O)(C(=O)OC)[C@H](OC(C)=O)[C@]5(CC)C=CCN6CC[C@]43[C@@H]65)C2)C1 [Vinblastine] + C=CCn1c(=O)c2cnc(Nc3ccc(N4CCN(C)CC4)cc3)nc2n1-c1cccc(C(C)(C)O)n1 [MK1775] | inactive: 0.163
COc1cc2c(cc1OC)CN(CCc1ccc(NC(=O)c3cccc4c(=O)c5cccc(OC)c5[nH]c34)cc1)CC2 [Elacridar] + C=CCn1c(=O)c2cnc(Nc3ccc(N4CCN(C)CC4)cc3)nc2n1-c1cccc(C(C)(C)O)n1 [MK1775] | inactive: -0.0584
CC(=O)NCCc1ccc(O)c(O)c1 [N-Acetyldopamine monohydrate] + C=CCn1c(=O)c2cnc(Nc3ccc(N4CCN(C)CC4)cc3)nc2n1-c1cccc(C(C)(C)O)n1 [MK1775] | inactive: 0.581
Nc1nccc2c1ncn2[C@@H]1O[C@H](CO)[C@@H](O)[C@H]1O [3-deazaadenosine] + C=CCn1c(=O)c2cnc(Nc3ccc(N4CCN(C)CC4)cc3)nc2n1-c1cccc(C(C)(C)O)n1 [MK1775] | inactive: 0.231
N[C@@H](Cc1ccc(F)cc1)C(=O)O [p-Fluoro-L-phenylalanine] + C=CCn1c(=O)c2cnc(Nc3ccc(N4CCN(C)CC4)cc3)nc2n1-c1cccc(C(C)(C)O)n1 [MK1775] | inactive: -0.163
Cn1cnc(N)c2ncnc1-2 [3-Methyladenine] + C=CCn1c(=O)c2cnc(Nc3ccc(N4CCN(C)CC4)cc3)nc2n1-c1cccc(C(C)(C)O)n1 [MK1775] | inactive: 0.434
COc1cc(CC(=O)O)ccc1O [4-Hydroxy-3-methoxyphenylacetic acid] + C=CCn1c(=O)c2cnc(Nc3ccc(N4CCN(C)CC4)cc3)nc2n1-c1cccc(C(C)(C)O)n1 [MK1775] | inactive: -0.649
CCCC(C(=O)OCCN(CC)CC)(c1ccccc1)c1ccccc1 [SKF-525A hydrochloride] + C=CCn1c(=O)c2cnc(Nc3ccc(N4CCN(C)CC4)cc3)nc2n1-c1cccc(C(C)(C)O)n1 [MK1775] | inactive: -0.403
Clc1ccccc1C(c1ccccc1)(c1ccccc1)n1ccnc1 [Clotrimazole] + C=CCn1c(=O)c2cnc(Nc3ccc(N4CCN(C)CC4)cc3)nc2n1-c1cccc(C(C)(C)O)n1 [MK1775] | inactive: 0.688

Retrieved one by one from above, 2 records:
Structure (SMILES) | Z' of S-phase gammaH2AX difference (Z-score)
CN(C)CCC(c1ccccc1)c1ccccn1 (stereo not given) [Pheniramine maleate] + C=CCn1c(=O)c2cnc(Nc3ccc(N4CCN(C)CC4)cc3)nc2n1-c1cccc(C(C)(C)O)n1 [MK1775] | inactive: 0.403
N=C(N)N1CCc2ccccc2C1 [Debrisoquin sulfate] + C=CCn1c(=O)c2cnc(Nc3ccc(N4CCN(C)CC4)cc3)nc2n1-c1cccc(C(C)(C)O)n1 [MK1775] | inactive: 0.0753
